# According to paper PMC5137149:
# Sequences of proteins named here, by UniProt entry; tags and fusion partners are left off.
# UniProt P46935: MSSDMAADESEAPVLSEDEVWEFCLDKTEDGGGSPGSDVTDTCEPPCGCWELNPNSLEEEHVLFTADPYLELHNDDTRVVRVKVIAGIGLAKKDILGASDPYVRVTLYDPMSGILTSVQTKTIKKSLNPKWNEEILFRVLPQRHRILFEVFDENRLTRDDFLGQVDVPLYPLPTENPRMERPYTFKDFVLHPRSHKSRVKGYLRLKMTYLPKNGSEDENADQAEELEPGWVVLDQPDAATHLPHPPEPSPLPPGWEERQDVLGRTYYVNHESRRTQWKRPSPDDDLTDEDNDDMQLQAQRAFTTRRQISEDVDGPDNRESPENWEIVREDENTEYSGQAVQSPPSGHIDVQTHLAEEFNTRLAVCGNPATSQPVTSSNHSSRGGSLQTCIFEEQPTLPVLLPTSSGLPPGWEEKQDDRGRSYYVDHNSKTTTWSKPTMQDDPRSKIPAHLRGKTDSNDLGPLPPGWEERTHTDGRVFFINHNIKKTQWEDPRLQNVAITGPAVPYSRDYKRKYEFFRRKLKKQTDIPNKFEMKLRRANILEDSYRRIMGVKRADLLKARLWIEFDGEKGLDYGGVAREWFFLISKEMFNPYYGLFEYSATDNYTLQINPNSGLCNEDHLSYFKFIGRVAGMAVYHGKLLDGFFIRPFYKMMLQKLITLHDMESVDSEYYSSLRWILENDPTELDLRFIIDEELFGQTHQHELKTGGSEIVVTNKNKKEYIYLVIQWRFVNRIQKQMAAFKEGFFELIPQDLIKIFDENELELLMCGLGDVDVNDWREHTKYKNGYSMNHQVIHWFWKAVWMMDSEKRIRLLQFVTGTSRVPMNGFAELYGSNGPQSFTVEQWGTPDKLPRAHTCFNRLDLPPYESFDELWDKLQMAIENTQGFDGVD
# UniProt Q62940: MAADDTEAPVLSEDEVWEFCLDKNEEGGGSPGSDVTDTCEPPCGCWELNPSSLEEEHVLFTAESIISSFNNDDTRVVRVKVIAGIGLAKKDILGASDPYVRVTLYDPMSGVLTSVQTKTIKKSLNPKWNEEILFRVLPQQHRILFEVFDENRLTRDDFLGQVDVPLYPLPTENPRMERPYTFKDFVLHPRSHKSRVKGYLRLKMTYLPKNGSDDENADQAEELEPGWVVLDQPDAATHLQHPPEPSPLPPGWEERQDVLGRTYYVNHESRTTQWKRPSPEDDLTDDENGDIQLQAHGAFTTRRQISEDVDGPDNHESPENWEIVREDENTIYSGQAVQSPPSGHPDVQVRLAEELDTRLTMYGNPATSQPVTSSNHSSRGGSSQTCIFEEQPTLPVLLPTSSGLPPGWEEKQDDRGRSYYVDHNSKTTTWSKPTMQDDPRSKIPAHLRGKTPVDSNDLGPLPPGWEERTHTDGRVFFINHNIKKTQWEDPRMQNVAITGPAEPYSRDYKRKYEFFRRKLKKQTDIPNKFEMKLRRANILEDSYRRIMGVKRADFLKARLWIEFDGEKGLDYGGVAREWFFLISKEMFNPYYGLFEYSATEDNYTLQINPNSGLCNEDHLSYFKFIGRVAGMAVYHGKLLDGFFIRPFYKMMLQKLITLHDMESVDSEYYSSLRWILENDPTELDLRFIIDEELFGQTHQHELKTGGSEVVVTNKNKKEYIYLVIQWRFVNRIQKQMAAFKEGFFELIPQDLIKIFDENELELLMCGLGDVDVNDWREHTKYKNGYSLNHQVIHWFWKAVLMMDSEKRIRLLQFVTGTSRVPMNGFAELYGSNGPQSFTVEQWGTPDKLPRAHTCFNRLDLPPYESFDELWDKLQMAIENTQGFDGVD
# These are yes or no findings as the source states them, for the method shown. Binding seen in cells or lysates may run through a third protein. Some binding calls cover weakened binding; strength is not graded here.
# Legend:
# [1] = biological target: Peroxisome proliferator-activated receptor gamma (PPARγ), endogenous mouse (mouse (endogenous in 3T3-L1 and mouse adipose tissue)) (UniProt P37238); assay: co-IP; mouse epididymal adipose tissue lysates (500 μg) immunoprecipitated with 1 μg anti-PPARγ antibody (clone E-8), immunoblotted with anti-NEDD4 antibody
# [2] = biological target: Peroxisome proliferator-activated receptor gamma (PPARγ), endogenous mouse (mouse (endogenous in 3T3-L1 and mouse adipose tissue)) (UniProt P37238); assay: co-IP; 3T3-L1 adipocyte total lysates (500 μg) immunoprecipitated with 1 μg anti-PPARγ antibody (clone E-8), protein A/G beads overnight at 4 °C; 25 mM Tris-HCl, 150 mM NaCl, 1% NP-40; normal mouse IgG as negative control
# [3] = biological target: FLAG-PPARγ2∆Hinge (without amino acids 206–280) (UniProt P37238); assay: co-IP; HEK293 cells transfected with T7-NEDD4 and FLAG-PPARγ2 or domain-deleted mutants, harvested 48 hours after transfection, MG132 (10 μM) 16 hr before harvesting; lysates immunoprecipitated with anti-FLAG antibody
# [4] = biological target: FLAG-PPARγ2∆LBD (without amino acids 281–505) (UniProt P37238); assay: as above
# [5] = biological target: FLAG-tagged PPARγ2 (pcDNA3.1-PPARγ2-FLAG) (UniProt P37238); assay: as above
# [6] = biological target: FLAG-tagged PPARγ2 (pcDNA3.1-PPARγ2-FLAG) (UniProt P37238); assay: co-IP; HEK293 cells transiently co-expressing T7-tagged NEDD4 and FLAG-tagged PPARγ2 or its PPxY mutants; immunoprecipitated with anti-PPARγ antibody (rabbit clone T.647.5 in Fig. 1C, mouse anti-PPARγ in Fig. 2B,C); 25 mM Tris-HCl, 150 mM NaCl, 1% NP-40
binding [1],binding [2],binding [3],binding [4],binding [5],binding [6],Substance
binds,binds,–,–,–,–,"Neural precursor cell expressed developmentally down-regulated protein 4 (NEDD4), endogenous mouse (from UniProt P46935 1-887) (enzyme)"
–,–,binds,binds,binds,binds,"T7-tagged NEDD4 (rat, wild type; pRc-CMV-T7-NEDD4) (from UniProt Q62940 1-887) (enzyme)"
